Assay results published in PubChem BioAssay AID540256 (National Center for Advancing Translational Sciences (NCATS), 2011).
Out of some 300,000 compounds screened, about 3,700 (1.2%) were called active. The inconclusive results got no clear call from the source; some entries with a clear call stand among them for comparison. The call rests on the fitted dose curve; tested in HEK293 cells. A potency beside an inconclusive call is a rough fit, not a confirmed value.

Assay: qHTS for Inhibitors of binding or entry into cells for Lassa Virus; further: nearly all actives have a fitted effect of over 50% in size
Settings: Lassa virus pseudotype entry inhibition, cell reporter; activity change, negative = inhibition: at 37.9 µM (top of the series) unless noted
On the % scale 0 is the no-effect control and ±100 the full control effect; potency means the concentration at half of the fitted maximal effect.

| SMILES | activity change, negative = inhibition | Potency |
| --- | --- | --- |
| c1ccn(-c2ncnc3sc4c(c23)CCCC4)c1 | inactive: -2.43% |  |
| CC(=O)OC(C(=O)NCc1ccc(F)cc1)c1ccccn1 (stereo unspecified) | inactive: 3.46% |  |
| Cc1ccc(C(=O)CNc2ccc(Br)cc2)cc1 |  | inconclusive: 11.6 µM [activator, partial curve, poor fit] |
| COc1ccc(OC)c(Cc2nnc(CCC(=O)NCc3ccsc3)o2)c1 | inactive: 18.7% [at 46.1 µM] |  |
| CC(C)CNC(=O)COC(=O)c1c2c(nc3ccccc13)/C(=C/c1cccs1)CC2 |  | inconclusive: 5.62 µM [activator, single point] |
| CCn1nc(C)c(NC(=O)c2ccc(Br)o2)c1C | inactive: -3.26% |  |
| COc1ccc(/C=N/NC(=O)CN(Cc2ccccc2)S(=O)(=O)c2ccc3c(c2)OCCO3)cc1 |  | inconclusive: 22.4 µM [inhibitor, single point] |
| O=C(CCc1nnc(CCCCc2ccccc2)o1)NCCN1CCOC1=O |  | inconclusive: 11.2 µM [inhibitor, partial curve, poor fit] |
| O=C(NNC(=S)NC(=O)c1cccc([N+](=O)[O-])c1)c1ccc(Br)cc1 |  | inconclusive: 12.6 µM [activator, single point] |
| Cc1ccccc1C(=O)NCCCc1ccccc1 |  | inconclusive: 11.2 µM [activator, partial curve, poor fit] |
| COC(=O)CCC(=O)Nc1ccc(S(=O)(=O)Nc2nc(C)cc(C)n2)cc1 | inactive: 20.5% |  |
| O=S(=O)(NC(=NCCc1ccc(Cl)cc1)c1ccccc1Cl)c1cccs1 |  | inconclusive: 25.1 µM [inhibitor, single point] |
| O=S(=O)(c1ccc(NC(=S)NCCc2ccccc2)cc1)N1CCOCC1 | inactive: -12.4% |  |
| O=C(CSCc1ccc(Cl)cc1)N/N=C/c1ccco1 | inactive: -10.9% [at 46.1 µM] |  |
| O=C(NCCNc1ccc([N+](=O)[O-])cc1C(F)(F)F)c1cccc(F)c1 |  | inconclusive: 14.1 µM [inhibitor, partial curve, poor fit] |
| CCc1nn(-c2ccccc2)c(N)c1C#N | inactive: 7.1% |  |
| COc1ccc(Cl)cc1NC(=S)NCc1ccc(S(N)(=O)=O)cc1 | inactive: 3.5% |  |
| CCc1ccc(C(=O)COC(=O)CNC(=O)COc2ccccc2)cc1 |  | inconclusive: 0.891 µM [activator, full curve, poor fit] |
| O=c1ccc2cc(S(=O)(=O)Nc3ccc(OC(F)(F)F)cc3)ccc2[nH]1 | inactive: -8.9% [at 46.1 µM] |  |
| Cc1cc(C)n(-c2nc(SCCN(C)C)c3c4c(sc3n2)CCCC4)n1 |  | inconclusive: 29.1 µM [inhibitor, single point] |
| Cc1ccc(CNC(=O)CSC2=Nc3ccccc3N=C(c3ccc(F)cc3)C2)cc1 | inactive: 12.4% [at 46.1 µM] |  |
| COc1ccc(/C=N/n2c(C)nc3ccccc3c2=O)cc1 | inactive: -6.55% |  |
| O=C(COC(=O)c1ccc(Cl)cc1[N+](=O)[O-])NNC(=O)c1cccs1 |  | inconclusive: 0.631 µM [inhibitor, single point] |

Compounds from the list above that have a CF3 group (2):

| SMILES | activity change, negative = inhibition | Potency |
| --- | --- | --- |
| O=C(NCCNc1ccc([N+](=O)[O-])cc1C(F)(F)F)c1cccc(F)c1 |  | inconclusive: 14.1 µM [inhibitor, partial curve, poor fit] |
| O=c1ccc2cc(S(=O)(=O)Nc3ccc(OC(F)(F)F)cc3)ccc2[nH]1 | inactive: -8.9% [at 46.1 µM] |  |

The listing continues.

| SMILES | activity change, negative = inhibition | Potency |
| --- | --- | --- |
| Cc1nn(-c2cccc(C(F)(F)F)c2)c(=O)c2ccccc12 | inactive: -4.09% |  |
| CCN(CC(=O)NC1CCS(=O)(=O)C1)S(=O)(=O)c1ccc(C)c(C)c1 (stereo unspecified) |  | inconclusive: 5.17 µM [activator, partial curve, poor fit] |
| CCCOc1ccc(-c2c(C(=O)N/N=C(\C)COc3ccccc3)nnn2-c2nonc2N)cc1 |  | inconclusive: 35.5 µM [activator, single point] |
| COC(=O)C1C(=O)c2c(n[nH]c2C)CC1(C)C (stereo unspecified) |  | inconclusive: 29.1 µM [activator, single point] |
| CC1=NN(c2ccccc2)C(=O)C1(C)[N+](=O)[O-] (stereo unspecified) | inactive: 2.65% |  |
| COc1ccc(O)c(C(=O)c2coc(=N)c(C(=O)Nc3ccc(SC(F)F)cc3)c2)c1 |  | inconclusive: 22.4 µM [inhibitor, single point] |
| O=C(Nc1ccccc1C(=O)NCCCN1CCOCC1)c1cccc([N+](=O)[O-])c1 |  | inconclusive: 6.31 µM [inhibitor, single point] |
| COC(=O)[C@@H]1CC[C@H](C)[C@@H](c2ccc(C)cc2)N1C(=O)c1ccc(/C=N/O[C@@H](C)c2cn([C@H](CO)Cc3ccccc3)nn2)cc1 |  | inconclusive: 29.1 µM [inhibitor, single point] |
| CC(C)(C)c1n[nH]c2c1CCCC2 |  | inconclusive: 16.4 µM [activator, partial curve, poor fit] |
| COc1nn(-c2ccccc2)c(=O)c(Cl)c1Cl |  | inconclusive: 31.6 µM [inhibitor, single point] |
| C=CCc1ccc(OCC(O)CN2CCN(Cc3ccc(Cl)cc3)CC2)c(OC)c1 (stereo unspecified) |  | inconclusive: 18.4 µM [inhibitor, single point] |
| O=C(COc1ccccc1F)Nc1ccc(OCc2cc(=O)n3ccccc3n2)cc1 |  | inconclusive: 3.55 µM [activator, single point] |
| COCCNC(=O)C1(C)Oc2ccccc2NC1=O (stereo unspecified) |  | inconclusive: 18.3 µM [activator, single point] |
| CCOC(=O)c1cccc(NC(=O)CCn2cccc2)c1 |  | active: 8.91 µM |
| CN(CC(=O)Nc1cccc(F)c1)C(=O)c1ccccc1OCCOc1ccccc1 |  | inconclusive: 31.6 µM [inhibitor, single point] |
| Cc1ccc(C2=NN(C(=O)c3ccco3)C(O)(C(F)(F)F)C2)cc1 (stereo unspecified) | inactive: -23.9% [at 46.1 µM] |  |
| COCCCN1C(=O)c2oc3ccccc3c(=O)c2C12C(=O)N(C)c1ccccc12 (stereo unspecified) | inactive: 1.96% [at 46.1 µM] |  |
| O=C(CN1C(=O)CCC1=O)NC(=O)NC1CCCC1 |  | inconclusive: 4.47 µM [activator, partial curve, poor fit] |
| O=C(CN1CCN(c2ccccc2F)CC1)NCc1ccccc1 |  | inconclusive: 12.6 µM [inhibitor, single point] |
| Cc1c(C)n(O)c2ccc3nonc3c12 |  | inconclusive: 0.631 µM [inhibitor, full curve, poor fit] |
| CCOC(=O)N1CCN(CC(=O)Nc2ccc(Oc3ccccc3)cc2)CC1 |  | active: 0.562 µM |
| CCn1c(CNC(=O)c2cc(OC)c(OC)c(OC)c2)cc2cc(C)ccc21 |  | inconclusive: 10 µM [inhibitor, partial curve, poor fit] |
| Cc1cccc(NC(=O)c2sc3nc(-c4cc5ccc(O)cc5oc4=O)[nH]c(=O)c3c2C)c1 |  | inconclusive: 10 µM [activator, partial curve, poor fit] |
